The results in this text go back to publication PMC6599204.

Chains of the proteins cited; added tags and fusions are not shown.
UniProt Q8TAF3: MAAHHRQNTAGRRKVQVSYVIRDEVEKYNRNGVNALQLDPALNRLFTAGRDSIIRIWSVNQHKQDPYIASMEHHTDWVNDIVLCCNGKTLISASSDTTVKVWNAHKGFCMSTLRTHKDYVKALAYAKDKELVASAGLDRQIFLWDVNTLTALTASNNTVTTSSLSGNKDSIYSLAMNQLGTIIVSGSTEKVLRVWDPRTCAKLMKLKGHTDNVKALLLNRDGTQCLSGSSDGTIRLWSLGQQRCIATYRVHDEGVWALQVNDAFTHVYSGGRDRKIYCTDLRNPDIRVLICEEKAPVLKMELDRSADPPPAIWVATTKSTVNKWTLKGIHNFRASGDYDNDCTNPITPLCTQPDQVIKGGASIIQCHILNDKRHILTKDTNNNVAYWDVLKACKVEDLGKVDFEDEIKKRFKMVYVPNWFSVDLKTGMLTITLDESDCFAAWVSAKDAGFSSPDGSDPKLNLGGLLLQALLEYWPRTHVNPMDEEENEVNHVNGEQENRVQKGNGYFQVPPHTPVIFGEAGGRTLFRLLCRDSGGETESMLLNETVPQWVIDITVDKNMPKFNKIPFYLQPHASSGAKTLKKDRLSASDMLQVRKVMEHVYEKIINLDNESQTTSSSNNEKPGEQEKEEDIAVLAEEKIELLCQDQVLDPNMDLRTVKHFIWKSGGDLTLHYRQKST

In this test the target is T1, RAD51AP1 (human) (UniProt Q96B01).
T1 sequence: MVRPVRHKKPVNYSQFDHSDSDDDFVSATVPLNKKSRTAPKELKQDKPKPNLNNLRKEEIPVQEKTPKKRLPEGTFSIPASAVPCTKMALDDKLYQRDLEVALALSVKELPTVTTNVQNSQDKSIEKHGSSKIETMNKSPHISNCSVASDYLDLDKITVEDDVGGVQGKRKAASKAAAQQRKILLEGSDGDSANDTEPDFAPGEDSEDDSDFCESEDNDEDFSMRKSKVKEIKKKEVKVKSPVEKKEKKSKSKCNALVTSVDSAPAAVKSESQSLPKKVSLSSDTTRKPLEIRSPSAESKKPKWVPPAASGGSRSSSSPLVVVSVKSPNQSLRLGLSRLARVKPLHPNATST
Description: pull-down; GST or MBP-tagged RAD51AP1 (2 ug) and Strep II-tagged UAF1 (2 ug) in 30 ul of 25 mM Tris-HCl pH 7.5, 10% glycerol, 0.5 mM EDTA, 0.01% Igepal, 1 mM DTT, 150 mM KCl for 30 min; captured on glutathione or amylose resin at 4 C for 1 h; SDS eluate on SDS-PAGE, Coomassie Blue; both purified.

Results are given in words; binding and its absence hold for the method and conditions named. Some results given as binding are weak or reduced against the parent protein; the word gives no strength.

Regarding UAF1 (from UniProt Q8TAF3 1-677), the binding entry is given as “binds”.
